Earlier results in patent US20240398725A1, “NANOPARTICLES FOR CANCER TREATMENT” (priority 2021, published 2024).

Conditions: cited from earlier work

**Q.** With `COc1cc(/C=C/C(=O)CC(=O)/C=C/c2ccc(O)c(OC)c2)ccc1O` [Curcumin, (E,E)-1,7-bis (4 hydroxy-3-methoxyphenyl)-1,6-heptadiene-3,5,-dione] as the compound, how does the “solubility in ethanol, alkalis, ketones, acetic acid and chloroform” value (ethanol, alkalis, ketones, acetic acid, chloroform) read?
**A.** soluble

**Q.** And the solubility in water (water)?
**A.** insoluble
